Experimental data as given in PMC11186357.
No constants are given. Whether binding was seen depends on the method and setting. Binding seen in cells or lysates may run through a third protein. Some results given as binding are weak or reduced against the parent protein; the word gives no strength. For part of these data: Where a sequence is shown, tags or fusion partners need not be part of it. One block for each molecule: values may come before it.

Sequences of proteins named here, by UniProt entry; tags and fusion partners are left off. Residues count along the entry.
UniProt O75581, residues 20-1613: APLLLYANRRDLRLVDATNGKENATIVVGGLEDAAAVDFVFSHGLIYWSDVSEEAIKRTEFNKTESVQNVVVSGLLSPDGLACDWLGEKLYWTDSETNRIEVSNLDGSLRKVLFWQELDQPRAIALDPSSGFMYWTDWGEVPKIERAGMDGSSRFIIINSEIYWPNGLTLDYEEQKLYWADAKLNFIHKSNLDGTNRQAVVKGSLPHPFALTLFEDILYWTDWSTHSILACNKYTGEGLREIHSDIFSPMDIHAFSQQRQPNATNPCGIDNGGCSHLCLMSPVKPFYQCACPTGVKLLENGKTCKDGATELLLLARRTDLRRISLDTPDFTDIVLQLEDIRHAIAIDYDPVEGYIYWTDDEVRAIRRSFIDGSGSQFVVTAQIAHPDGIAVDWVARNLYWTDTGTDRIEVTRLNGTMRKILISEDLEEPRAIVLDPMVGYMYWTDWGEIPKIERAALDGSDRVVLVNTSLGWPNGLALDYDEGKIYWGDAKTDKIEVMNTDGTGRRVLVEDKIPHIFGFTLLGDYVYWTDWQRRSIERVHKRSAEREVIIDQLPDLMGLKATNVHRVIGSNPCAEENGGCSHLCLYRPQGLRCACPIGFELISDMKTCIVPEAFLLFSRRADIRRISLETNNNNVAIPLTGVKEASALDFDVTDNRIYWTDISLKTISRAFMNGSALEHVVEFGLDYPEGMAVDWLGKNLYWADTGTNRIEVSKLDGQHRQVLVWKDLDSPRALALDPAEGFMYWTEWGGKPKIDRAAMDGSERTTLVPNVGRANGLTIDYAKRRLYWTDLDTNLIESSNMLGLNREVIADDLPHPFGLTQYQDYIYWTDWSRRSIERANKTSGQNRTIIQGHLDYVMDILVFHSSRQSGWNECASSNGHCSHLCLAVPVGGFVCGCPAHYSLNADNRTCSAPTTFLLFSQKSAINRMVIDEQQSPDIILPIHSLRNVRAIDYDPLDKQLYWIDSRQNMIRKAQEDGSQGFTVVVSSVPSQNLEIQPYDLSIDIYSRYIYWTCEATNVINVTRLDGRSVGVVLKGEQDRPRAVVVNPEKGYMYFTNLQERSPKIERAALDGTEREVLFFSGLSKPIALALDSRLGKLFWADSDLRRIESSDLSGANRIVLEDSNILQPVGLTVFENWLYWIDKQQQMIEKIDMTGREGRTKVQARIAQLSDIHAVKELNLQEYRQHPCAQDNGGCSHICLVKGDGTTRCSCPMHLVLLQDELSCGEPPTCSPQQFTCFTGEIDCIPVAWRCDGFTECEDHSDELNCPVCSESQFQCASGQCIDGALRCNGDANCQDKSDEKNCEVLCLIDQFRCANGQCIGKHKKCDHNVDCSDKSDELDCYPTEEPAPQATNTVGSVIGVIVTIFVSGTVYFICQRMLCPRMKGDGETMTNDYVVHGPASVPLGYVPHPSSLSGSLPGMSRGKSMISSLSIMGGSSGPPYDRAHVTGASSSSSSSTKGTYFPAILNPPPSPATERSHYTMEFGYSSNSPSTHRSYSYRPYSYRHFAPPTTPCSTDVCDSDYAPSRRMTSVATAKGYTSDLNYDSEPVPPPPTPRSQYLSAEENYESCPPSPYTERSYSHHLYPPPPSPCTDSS
UniProt Q07065: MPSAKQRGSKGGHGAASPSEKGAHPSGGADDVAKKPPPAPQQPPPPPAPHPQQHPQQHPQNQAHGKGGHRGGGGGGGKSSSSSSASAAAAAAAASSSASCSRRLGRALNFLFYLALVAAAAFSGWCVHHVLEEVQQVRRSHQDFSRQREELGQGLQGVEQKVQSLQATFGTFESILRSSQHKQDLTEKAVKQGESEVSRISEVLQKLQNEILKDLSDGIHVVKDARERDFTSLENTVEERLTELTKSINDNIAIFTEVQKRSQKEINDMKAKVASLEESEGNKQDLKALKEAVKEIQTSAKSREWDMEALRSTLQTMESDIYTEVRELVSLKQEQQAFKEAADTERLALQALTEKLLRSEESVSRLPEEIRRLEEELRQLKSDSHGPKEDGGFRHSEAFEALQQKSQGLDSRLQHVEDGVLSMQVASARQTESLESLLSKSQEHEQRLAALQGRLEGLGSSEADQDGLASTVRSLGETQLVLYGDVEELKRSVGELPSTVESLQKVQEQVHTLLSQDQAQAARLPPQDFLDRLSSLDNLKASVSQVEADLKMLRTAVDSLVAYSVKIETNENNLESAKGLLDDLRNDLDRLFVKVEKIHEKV

Legend:
[1] = target: Low density lipoprotein receptor related protein 6 (human (endogenous in HASMCs)) (UniProt O75581); assay: co-IP; endogenous proteins in SMCs under stimulation with rDKK1
[2] = target: T1, scavenger receptor-A (human (endogenous in HASMCs)) (UniProt P21757); assay: co-IP; endogenous proteins in HASMCs; also after rDKK1 incubation or co-culture with Lenti-GFP-DKK1 HAECs (interaction said to be enhanced)
T1 sequence: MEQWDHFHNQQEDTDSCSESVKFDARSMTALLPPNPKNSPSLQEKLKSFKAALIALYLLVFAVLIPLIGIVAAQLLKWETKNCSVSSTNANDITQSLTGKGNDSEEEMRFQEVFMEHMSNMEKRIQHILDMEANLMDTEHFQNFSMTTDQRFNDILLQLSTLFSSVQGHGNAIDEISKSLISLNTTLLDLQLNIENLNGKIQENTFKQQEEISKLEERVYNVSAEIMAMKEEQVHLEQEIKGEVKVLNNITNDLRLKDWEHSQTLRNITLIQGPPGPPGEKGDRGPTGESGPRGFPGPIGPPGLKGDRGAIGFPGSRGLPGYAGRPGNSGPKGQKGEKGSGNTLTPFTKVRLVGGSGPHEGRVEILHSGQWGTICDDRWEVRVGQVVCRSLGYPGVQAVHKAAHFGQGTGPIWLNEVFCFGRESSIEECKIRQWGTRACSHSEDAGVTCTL

Myc-tagged SR-A = target: T2, Myc-tagged SR-A (UniProt P21757); assay: co-IP; HEK293T cells co-transfected with Myc-tagged SR-A and Flag-tagged USP53 plasmids
T2 sequence: T1 sequence

binding [1]: binds
Molecule: Cytoskeleton associated protein 4 (from UniProt Q07065 1-602) (receptor)

binding [2]: binds
B1: Ubiquitin-specific Protease 53 (enzyme, UniProt Q70EK8 1-1073)
chain: MAWVKFLRKPGGNLGKVYQPGSMLSLAPTKGLLNEPGQNSCFLNSAVQVLWQLDIFRRSLRVLTGHVCQGDACIFCALKTIFAQFQHSREKALPSDNIRHALAESFKDEQRFQLGLMDDAAECFENMLERIHFHIVPSRDADMCTSKSCITHQKFAMTLYEQCVCRSCGASSDPLPFTEFVRYISTTALCNEVERMLERHERFKPEMFAELLQAANTTDDYRKCPSNCGQKIKIRRVLMNCPEIVTIGLVWDSEHSDLTEAVVRNLATHLYLPGLFYRVTDENAKNSELNLVGMICYTSQHYCAFAFHTKSSKWVFFDDANVKEIGTRWKDVVSKCIRCHFQPLLLFYANPDGTAVSTEDALRQVISWSHYKSVAENMGCEKPVIHKSDNLKENGFGDQAKQRENQKFPTDNISSSNRSHSHTGVGKGPAKLSHIDQREKIKDISRECALKAIEQKNLLSSQRKDLEKGQRKDLGRHRDLVDEDLSHFQSGSPPAPNGFKQHGNPHLYHSQGKGSYKHDRVVPQSRASAQIISSSKSQILAPGEKITGKVKSDNGTGYDTDSSQDSRDRGNSCDSSSKSRNRGWKPMRETLNVDSIFSESEKRQHSPRHKPNISNKPKSSKDPSFSNWPKENPKQKGLMTIYEDEMKQEIGSRSSLESNGKGAEKNKGLVEGKVHGDNWQMQRTESGYESSDHISNGSTNLDSPVIDGNGTVMDISGVKETVCFSDQITTSNLNKERGDCTSLQSQHHLEGFRKELRNLEAGYKSHEFHPESHLQIKNHLIKRSHVHEDNGKLFPSSSLQIPKDHNAREHIHQSDEQKLEKPNECKFSEWLNIENSERTGLPFHVDNSASGKRVNSNEPSSLWSSHLRTVGLKPETAPLIQQQNIMDQCYFENSLSTECIIRSASRSDGCQMPKLFCQNLPPPLPPKKYAITSVPQSEKSESTPDVKLTEVFKATSHLPKHSLSTASEPSLEVSTHMNDERHKETFQVRECFGNTPNCPSSSSTNDFQANSGAIDAFCQPELDSISTCPNETVSLTTYFSVDSCMTDTYRLKYHQRPKLSFPESSGFCNNSLS

binding (Myc-tagged SR-A): binds
B2: Flag-tagged USP53 (enzyme, UniProt Q70EK8 1-1073)
chain: B1 chain
